The values below come from publication PMC7256328.

No constants are given. Whether binding was seen depends on the method and setting. Binding seen in cells or lysates may run through a third protein. Some results given as binding are weak or reduced against the parent protein; the word gives no strength.

For this assay, the target named is T1, Nucleolar protein 58 (NOP58), endogenous (mouse (endogenous in liver)) (UniProt Q6DFW4).
T1 sequence: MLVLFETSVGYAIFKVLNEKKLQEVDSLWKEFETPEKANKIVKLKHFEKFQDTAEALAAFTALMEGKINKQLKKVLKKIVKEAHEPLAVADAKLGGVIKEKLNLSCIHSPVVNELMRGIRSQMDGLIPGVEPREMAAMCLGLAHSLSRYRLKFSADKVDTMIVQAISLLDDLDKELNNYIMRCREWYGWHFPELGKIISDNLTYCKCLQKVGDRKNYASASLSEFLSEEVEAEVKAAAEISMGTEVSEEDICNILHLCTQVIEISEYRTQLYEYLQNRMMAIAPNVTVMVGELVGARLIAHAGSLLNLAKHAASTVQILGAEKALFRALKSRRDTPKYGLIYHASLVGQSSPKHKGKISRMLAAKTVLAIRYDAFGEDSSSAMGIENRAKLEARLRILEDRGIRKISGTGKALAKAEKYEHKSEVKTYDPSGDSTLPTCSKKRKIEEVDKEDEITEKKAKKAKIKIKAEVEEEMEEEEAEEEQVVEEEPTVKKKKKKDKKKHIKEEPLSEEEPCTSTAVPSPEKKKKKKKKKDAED
The experiment in a line: co-IP; co-IP of endogenous NOP58 in nucleoli fractionated from livers of WT and Bmal1-KO mice; western blot. (In western blotting, separated proteins are transferred to a membrane and probed.)

B1: Fibrillarin (FBL), endogenous (protein, UniProt P35550 1-327)
chain: MKPGFSPRGGGFGGRGGFGDRGGRGGGRGGRGGFGGGRGGFGGGGRGRGGGGGGFRGRGGGGGRGGGFQSGGNRGRGGGRGGKRGNQSGKNVMVEPHRHEGVFICRGKEDALVTKNLVPGESVYGEKRVSISEGDDKIEYRAWNPFRSKLAAAILGGVDQIHIKPGAKVLYLGAASGTTVSHVSDIVGPDGLVYAVEFSHRSGRDLINLAKKRTNIIPVIEDARHPHKYRMLIAMVDVIFADVAQPDQTRIVALNAHTFLRNGGHFVISIKANCIDSTASAEAVFASEVKKMQQENMKPQEQLTLEPYERDHAVVVGVYRPPPKVKN
Turning to B1, the binding result is listed as “binds”.
